# Measured values taken from the supplement of paper PMC6411743.
# Amino acid sequences for entries named in this document (tags omitted). A change or cut given only in a name is not applied to a line headed by its entry.
# UniProt Q9Y617: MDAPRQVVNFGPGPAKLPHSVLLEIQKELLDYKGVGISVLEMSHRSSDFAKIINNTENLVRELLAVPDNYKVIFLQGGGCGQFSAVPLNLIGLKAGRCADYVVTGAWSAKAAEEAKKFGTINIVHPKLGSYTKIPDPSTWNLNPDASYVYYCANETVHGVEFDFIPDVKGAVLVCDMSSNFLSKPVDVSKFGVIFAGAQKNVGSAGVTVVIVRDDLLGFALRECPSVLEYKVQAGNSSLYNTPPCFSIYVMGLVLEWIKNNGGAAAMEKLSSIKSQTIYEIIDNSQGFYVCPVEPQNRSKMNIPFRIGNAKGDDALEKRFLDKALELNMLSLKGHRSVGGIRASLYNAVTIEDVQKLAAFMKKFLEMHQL
# UniProt Q9Y2L1: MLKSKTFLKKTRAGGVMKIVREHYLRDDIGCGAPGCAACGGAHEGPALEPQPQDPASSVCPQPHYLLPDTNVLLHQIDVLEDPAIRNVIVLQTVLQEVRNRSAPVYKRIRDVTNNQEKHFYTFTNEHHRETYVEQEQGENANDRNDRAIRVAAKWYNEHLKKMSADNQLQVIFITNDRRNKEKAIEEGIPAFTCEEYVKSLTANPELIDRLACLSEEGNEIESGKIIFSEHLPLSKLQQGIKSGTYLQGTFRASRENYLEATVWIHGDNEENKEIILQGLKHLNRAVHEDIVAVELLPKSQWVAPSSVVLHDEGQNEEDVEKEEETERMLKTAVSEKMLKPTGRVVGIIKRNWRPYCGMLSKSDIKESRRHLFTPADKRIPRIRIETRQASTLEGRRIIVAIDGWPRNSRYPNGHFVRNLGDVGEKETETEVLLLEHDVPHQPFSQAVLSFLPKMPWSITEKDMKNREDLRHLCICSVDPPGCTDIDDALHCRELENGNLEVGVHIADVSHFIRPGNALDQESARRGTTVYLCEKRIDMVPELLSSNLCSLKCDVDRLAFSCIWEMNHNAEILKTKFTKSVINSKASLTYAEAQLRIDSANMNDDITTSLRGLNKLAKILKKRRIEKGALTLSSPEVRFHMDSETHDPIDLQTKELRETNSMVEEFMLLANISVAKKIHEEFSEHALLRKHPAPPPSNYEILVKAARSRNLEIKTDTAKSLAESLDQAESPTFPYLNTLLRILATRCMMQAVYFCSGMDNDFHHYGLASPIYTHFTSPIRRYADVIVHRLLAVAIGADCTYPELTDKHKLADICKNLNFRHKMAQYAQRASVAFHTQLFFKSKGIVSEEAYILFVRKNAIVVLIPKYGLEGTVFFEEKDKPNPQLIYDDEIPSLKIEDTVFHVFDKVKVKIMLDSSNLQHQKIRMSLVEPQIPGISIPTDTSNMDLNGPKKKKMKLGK
# UniProt Q9Y5Q8: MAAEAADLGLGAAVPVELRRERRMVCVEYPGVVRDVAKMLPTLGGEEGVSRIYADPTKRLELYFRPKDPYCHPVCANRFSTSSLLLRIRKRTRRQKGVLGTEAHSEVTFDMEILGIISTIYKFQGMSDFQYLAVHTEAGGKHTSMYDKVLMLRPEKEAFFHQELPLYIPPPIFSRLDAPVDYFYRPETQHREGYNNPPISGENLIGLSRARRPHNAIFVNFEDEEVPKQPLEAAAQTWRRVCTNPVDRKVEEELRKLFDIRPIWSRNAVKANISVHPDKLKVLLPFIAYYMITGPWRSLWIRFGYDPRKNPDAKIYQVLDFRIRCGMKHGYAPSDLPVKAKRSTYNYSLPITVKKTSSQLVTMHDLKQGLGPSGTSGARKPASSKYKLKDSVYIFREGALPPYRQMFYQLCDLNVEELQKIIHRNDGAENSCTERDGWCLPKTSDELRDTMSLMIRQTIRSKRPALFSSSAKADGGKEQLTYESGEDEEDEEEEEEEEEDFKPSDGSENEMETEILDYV
# UniProt Q9Y5Z4: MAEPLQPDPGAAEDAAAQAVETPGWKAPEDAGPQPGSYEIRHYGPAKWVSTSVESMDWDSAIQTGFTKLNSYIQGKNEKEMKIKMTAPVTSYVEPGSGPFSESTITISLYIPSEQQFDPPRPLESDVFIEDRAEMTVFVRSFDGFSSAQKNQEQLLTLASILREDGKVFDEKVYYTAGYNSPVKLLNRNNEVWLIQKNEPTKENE
# UniProt Q9Y680: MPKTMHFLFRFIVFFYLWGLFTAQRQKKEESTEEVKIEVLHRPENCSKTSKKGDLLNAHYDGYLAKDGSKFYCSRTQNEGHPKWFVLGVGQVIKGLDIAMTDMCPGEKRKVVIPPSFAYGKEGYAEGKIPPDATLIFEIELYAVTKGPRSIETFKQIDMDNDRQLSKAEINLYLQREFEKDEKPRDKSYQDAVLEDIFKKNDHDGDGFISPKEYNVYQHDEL
# UniProt Q9Y5N6: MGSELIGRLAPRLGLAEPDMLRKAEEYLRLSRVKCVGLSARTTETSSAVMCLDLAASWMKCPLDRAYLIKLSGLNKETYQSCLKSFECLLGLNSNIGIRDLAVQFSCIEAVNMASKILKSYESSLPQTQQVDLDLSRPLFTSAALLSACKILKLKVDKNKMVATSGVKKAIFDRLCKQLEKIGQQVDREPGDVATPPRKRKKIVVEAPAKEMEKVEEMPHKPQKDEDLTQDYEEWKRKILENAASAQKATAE
# UniProt Q9Y6Q9, whole entry, looked up: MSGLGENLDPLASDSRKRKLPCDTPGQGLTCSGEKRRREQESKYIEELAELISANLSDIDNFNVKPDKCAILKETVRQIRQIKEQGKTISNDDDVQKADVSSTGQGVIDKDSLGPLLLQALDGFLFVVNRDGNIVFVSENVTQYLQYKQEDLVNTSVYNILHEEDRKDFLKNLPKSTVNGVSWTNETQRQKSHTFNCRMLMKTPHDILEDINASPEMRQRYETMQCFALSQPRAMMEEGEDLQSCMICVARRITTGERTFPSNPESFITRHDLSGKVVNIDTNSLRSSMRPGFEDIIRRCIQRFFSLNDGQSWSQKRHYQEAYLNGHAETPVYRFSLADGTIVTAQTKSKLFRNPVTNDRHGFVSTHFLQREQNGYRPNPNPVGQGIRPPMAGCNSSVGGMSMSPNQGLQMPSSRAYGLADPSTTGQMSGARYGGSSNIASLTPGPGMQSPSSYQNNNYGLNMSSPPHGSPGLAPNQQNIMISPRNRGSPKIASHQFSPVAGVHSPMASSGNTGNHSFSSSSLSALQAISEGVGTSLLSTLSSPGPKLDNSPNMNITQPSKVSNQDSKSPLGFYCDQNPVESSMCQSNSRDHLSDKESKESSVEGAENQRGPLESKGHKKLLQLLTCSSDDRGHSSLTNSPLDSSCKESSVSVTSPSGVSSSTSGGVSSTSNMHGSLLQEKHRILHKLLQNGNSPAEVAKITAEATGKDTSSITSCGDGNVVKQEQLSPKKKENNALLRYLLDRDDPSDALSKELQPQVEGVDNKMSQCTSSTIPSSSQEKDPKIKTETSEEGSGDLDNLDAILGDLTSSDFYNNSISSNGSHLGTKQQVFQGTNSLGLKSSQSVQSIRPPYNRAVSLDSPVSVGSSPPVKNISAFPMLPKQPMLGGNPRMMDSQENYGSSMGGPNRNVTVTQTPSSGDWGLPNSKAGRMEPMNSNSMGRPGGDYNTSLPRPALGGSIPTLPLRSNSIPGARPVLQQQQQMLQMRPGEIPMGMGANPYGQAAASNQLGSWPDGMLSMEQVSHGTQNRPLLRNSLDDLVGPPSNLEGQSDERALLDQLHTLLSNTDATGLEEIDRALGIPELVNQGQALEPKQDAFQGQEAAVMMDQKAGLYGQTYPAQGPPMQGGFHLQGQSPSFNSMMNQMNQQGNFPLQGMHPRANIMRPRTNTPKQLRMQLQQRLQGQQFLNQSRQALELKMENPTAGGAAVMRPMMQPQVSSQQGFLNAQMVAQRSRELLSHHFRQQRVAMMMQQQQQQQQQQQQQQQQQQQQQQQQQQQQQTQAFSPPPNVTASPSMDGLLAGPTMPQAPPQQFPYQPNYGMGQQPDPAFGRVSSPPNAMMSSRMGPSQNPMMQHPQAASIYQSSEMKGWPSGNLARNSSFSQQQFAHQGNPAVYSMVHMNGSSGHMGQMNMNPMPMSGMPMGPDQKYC
# UniProt Q9Y4D1, whole entry: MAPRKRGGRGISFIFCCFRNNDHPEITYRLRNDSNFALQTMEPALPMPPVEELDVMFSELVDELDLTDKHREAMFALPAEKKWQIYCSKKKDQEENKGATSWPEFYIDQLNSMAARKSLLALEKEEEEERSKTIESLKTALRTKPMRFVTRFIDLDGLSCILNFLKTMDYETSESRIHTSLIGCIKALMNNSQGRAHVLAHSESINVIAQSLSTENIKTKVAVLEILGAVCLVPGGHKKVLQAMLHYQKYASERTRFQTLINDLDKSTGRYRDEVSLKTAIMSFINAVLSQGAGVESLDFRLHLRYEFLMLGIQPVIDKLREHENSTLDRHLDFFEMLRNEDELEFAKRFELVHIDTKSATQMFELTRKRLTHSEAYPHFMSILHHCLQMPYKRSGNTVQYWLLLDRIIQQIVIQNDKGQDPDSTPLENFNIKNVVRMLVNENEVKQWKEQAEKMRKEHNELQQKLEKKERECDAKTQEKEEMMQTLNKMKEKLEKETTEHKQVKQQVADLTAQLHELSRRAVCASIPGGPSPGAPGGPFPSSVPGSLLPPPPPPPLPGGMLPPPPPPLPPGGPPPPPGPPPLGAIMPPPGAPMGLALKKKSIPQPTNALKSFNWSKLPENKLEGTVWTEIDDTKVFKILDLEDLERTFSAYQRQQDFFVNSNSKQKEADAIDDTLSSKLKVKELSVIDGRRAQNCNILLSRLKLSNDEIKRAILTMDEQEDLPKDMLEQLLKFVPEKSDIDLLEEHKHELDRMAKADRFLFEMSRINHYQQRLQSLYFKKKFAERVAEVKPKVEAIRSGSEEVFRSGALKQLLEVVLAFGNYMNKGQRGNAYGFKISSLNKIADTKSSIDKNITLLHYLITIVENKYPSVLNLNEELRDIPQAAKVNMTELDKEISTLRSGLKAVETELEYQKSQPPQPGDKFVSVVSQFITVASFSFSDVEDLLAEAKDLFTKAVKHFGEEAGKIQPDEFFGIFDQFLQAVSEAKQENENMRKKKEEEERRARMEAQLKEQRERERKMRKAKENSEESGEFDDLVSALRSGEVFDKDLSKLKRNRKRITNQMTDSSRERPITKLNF
# UniProt Q9Y2H1: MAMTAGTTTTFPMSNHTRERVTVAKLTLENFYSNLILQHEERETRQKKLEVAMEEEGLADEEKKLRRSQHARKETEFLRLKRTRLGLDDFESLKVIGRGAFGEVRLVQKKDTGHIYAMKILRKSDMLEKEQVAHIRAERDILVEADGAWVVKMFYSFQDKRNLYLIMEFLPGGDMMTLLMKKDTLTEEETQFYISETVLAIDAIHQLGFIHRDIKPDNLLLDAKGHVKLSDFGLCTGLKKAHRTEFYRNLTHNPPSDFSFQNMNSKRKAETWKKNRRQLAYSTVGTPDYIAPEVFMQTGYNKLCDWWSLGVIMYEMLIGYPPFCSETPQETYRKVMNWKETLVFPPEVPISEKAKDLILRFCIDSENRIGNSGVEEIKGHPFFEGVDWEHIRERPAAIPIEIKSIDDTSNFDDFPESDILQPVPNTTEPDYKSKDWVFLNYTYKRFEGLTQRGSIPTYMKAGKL
# UniProt Q9Y6B6: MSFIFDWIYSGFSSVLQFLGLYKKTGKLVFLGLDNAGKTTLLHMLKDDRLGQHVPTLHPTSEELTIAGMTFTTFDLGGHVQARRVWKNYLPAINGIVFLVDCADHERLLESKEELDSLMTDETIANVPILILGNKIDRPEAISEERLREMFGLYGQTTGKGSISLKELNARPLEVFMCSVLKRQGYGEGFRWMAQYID
# UniProt Q9Y2V7: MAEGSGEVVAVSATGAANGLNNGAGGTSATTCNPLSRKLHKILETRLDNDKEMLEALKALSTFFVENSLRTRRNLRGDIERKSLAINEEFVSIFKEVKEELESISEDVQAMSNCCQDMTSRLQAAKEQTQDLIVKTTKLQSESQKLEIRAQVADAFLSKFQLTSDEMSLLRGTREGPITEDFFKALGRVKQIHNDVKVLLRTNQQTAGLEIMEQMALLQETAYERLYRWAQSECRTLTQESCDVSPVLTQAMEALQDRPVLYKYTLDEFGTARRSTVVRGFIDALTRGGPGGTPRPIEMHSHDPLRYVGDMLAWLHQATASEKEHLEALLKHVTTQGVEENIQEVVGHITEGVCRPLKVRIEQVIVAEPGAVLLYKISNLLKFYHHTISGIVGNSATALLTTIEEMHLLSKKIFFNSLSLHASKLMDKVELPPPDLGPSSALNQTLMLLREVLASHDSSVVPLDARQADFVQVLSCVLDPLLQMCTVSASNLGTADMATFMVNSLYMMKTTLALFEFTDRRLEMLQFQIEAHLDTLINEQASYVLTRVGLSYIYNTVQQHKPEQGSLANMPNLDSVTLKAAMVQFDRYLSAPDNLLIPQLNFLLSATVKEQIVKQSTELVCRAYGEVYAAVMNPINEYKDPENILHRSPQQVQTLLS
# UniProt Q9Y3D2: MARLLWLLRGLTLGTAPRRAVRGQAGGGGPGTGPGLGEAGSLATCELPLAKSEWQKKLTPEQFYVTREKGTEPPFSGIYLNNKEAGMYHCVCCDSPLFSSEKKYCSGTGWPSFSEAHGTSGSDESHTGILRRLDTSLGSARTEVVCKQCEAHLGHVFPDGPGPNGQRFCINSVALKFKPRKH
# ± gives the standard deviation of the averaged measurements. The entries are a selection whose mix differs from that of the whole data set. Small differences around the control level are noise.
# Compound: Nc1ncnc2c1ncn2[C@@H]1O[C@H](COP(=O)(O)OP(=O)(O)OP(=O)(O)O)[C@@H](O)[C@H]1O [adenosine triphosphate]
# Test: NP40-soluble protein abundance relative to vehicle (solubility fold change) (ratio); higher = more soluble protein in presence of ATP
# Procedure, shortened: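 Eight concentrations, 0.1 to 10 mM, were tested on Jurkat crude lysate for 10 min at room temperature and then 3 min at 37 °C, in three independent experiments. The lysate was solubilised with 0.8% NP40 and benzonase, ultracentrifuged, and the supernatant TMT-labelled for LC-MS/MS. Each value is the fold change against the detergent-processed vehicle in its own replicate, from vsn-normalised intensities.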
Target,NP40-soluble protein abundance (concentration: 0.1mM),NP40-soluble protein abundance (concentration: 0.5mM)
PSAT1 (UniProt Q9Y617),0.972 ± 0.033,0.978 ± 0.012
ATP6V0A2 (UniProt Q9Y487),1.08 ± 0.056,1.02 ± 0.024
UniProt Q9Y3Y2 and related entries,0.962 ± 0.1,0.98 ± 0.043
RABGAP1 (UniProt Q9Y3P9),0.991 ± 0.018,1.01 ± 0.053
OAS3 (UniProt Q9Y6K5),1.05 ± 0.073,1.01 ± 0.059
POLR3K (UniProt Q9Y2Y1),0.91 ± 0.18,0.902 ± 0.2
R4GN35 and related entries (UniProt Q5VZ89),1 ± 0.028,0.983 ± 0.032
DIS3 (UniProt Q9Y2L1),1.06 ± 0.062,1.03 ± 0.06
CD2AP (UniProt Q9Y5K6),1 ± 0.063,1.02 ± 0.087
UniProt Q9Y5Q8 and related entries,1.04 ± 0.015,1.028 ± 0.0098
UniProt Q9Y450 and related entries,1.02 ± 0.054,1.03 ± 0.053
HEBP2 (UniProt Q9Y5Z4),1 ± 0.046,1 ± 0.046
UniProt Q9Y4E6 and related entries,1 ± 0.059,1 ± 0.06
UBIAD1 (UniProt Q9Y5Z9),0.984 ± 0.065,0.953 ± 0.04
UniProt Q9Y680 and related entries,1.02 ± 0.087,0.996 ± 0.058
ORC6 (UniProt Q9Y5N6),0.962 ± 0.054,0.97 ± 0.048
UniProt Q9Y2D5 and related entries,0.862 ± 0.0087,0.888 ± 0.033
UniProt Q9Y6Q9 and related entries,0.994 ± 0.03,0.984 ± 0.021
UniProt Q9Y2G2-4|Q9Y2G2-5,0.968 ± 0.066,0.954 ± 0.049

# An excerpt of these results, tab-delimited:
Target	NP40-soluble protein abundance (concentration: 0.1mM)	NP40-soluble protein abundance (concentration: 0.5mM)
UniProt Q9Y3Y2 and related entries	0.962 ± 0.1	0.98 ± 0.043
RABGAP1 (UniProt Q9Y3P9)	0.991 ± 0.018	1.01 ± 0.053
OAS3 (UniProt Q9Y6K5)	1.05 ± 0.073	1.01 ± 0.059

# Next part:

Target,NP40-soluble protein abundance (concentration: 0.1mM),NP40-soluble protein abundance (concentration: 0.5mM)
GSTK1 (UniProt Q9Y2Q3),0.9741 ± 0.0048,0.963 ± 0.032
UniProt Q9Y4D1 and related entries,0.979 ± 0.031,0.965 ± 0.043
UniProt Q9Y2H1,1.06 ± 0.034,1.12 ± 0.066
ZNF330 (UniProt Q9Y3S2),1.04 ± 0.073,1.03 ± 0.037
MAD1L1 (UniProt Q9Y6D9),1.02 ± 0.017,1 ± 0.076
DERA (UniProt Q9Y315),0.969 ± 0.026,0.9649 ± 0.0081
TIMM9 (UniProt Q9Y5J7),0.95 ± 0.11,0.908 ± 0.078
TACC3 (UniProt Q9Y6A5),0.974 ± 0.014,0.97 ± 0.034
UniProt Q9Y3D5 and related entries,0.832 ± 0.11,0.857 ± 0.12
SPIN1 (UniProt Q9Y657),1.01 ± 0.019,1.09 ± 0.051
X5CMH5 and related entries (UniProt Q03519),1.1 ± 0.076,1.09 ± 0.034
SAR1B (UniProt Q9Y6B6),1.09 ± 0.06,1.09 ± 0.04
RNF115 (UniProt Q9Y4L5),0.997 ± 0.12,0.953 ± 0.038
UniProt Q9Y2V7 and related entries,1.01 ± 0.019,0.993 ± 0.016
UniProt Q9Y2X0-2|Q9Y2X0-3|Q9Y2X0,1.1 ± 0.094,1.06 ± 0.042
MSRB2 (UniProt Q9Y3D2),0.973 ± 0.1,0.986 ± 0.075
ARIH1 (UniProt Q9Y4X5),1.06 ± 0.11,1.02 ± 0.07
UniProt Q9Y5S9 and related entries,0.99 ± 0.066,1.02 ± 0.058
SLC30A1 (UniProt Q9Y6M5),0.942 ± 0.14,0.997 ± 0.057
